These are yes or no findings as the source states them, for the method shown. In cells and extracts the contact can be indirect. Here binding means that the protein was enriched with, or labelled near, the bait; the list need not be complete. Sequences can lack the tags named with a protein.
T1: GST–GRAF1 SH3 (human) (UniProt Q9UNA1)
T1 sequence: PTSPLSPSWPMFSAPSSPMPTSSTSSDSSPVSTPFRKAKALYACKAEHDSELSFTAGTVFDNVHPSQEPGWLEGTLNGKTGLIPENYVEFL

T2: GST–GRAF2 SH3 (human) (UniProt A1A4S6)
T2 sequence: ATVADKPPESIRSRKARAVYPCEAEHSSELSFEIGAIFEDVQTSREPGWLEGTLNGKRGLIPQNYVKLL

B1: WDR44 of rat brain lysate (protein, UniProt Q9R037 1-908)
chain: MMPLKMCTWGGSYPVGSPGKVGLLSFKETKNTGNKAGNESPVQELRQDVSKKIIECIIEESQKVLQLEDDSLDSKGKGLSDQATASHSVAGTEFSNIPGLLAIQHELQQGSRKADSQNAAEETELETQKCFPSDNNCEKSEKTEDETNNLTEVSSADQLDASKLETEILNKEAVEVKEGDVVNPASSDALSTKDFAAVEEVAPAKPPRHLTPEPDIVASTKKPVPARPPPPTNFPPPRPPPPSRPAPPPRKKKSDLEFEALKTPDLDVPKDNIASDSLLTTNMASESTVRDSLPSLDLASATSGDKIVTAQENGKAPDVQTVAGEVMGPQRPRSNSGRELTDEEILASVMIKNLDTGEEIPLSLAEEKLPTGINPLTPLTLHIMRRTKEYVSNDATQSDDEEKLQSQQTDTDGGRLKQKTTQLKKFLGKSVKRAKHLAEEYGERAINKVKSVRDEVFHTDQDDPSSSDDEGMPYTRPVKFKAAHGFKGPYDFDQIKVVQDLSGEHMGAVWTMKFSHCGRLLASAGQDNIVRIWALKNAFDYFNNMRMKYNTEGRVSPSPSQESLSSSKSDTDMGVCSGTDEDPDDKNAPFRQRPFCKYKGHTADLLDLSWSKNYFLLSSSMDKTVRLWHISRRECLCCFQHIDFVTAIAFHPRDDRYFLSGSLDGKLRLWNIPDKKVALWNEVDGQTKLITAANFCQNGKYAVIGTYDGRCIFYDTEHLKYHTQIHVRSTRGRNKVGRKITGIEPLPGENKILVTSNDSRIRLYDLRDLSLSMKYKGYVNSSSQIKASFSHDFTYLVSGSEDKYVYIWSTYHDLSKFTSVRRDRNDFWEGIKAHNAVVTSAIFAPNPSLMLSLDVQSEKLEGIDKYEDAEVLDNTSTGIVKTDNTEVLLSADFTGAQCFYVKNSFLYP
B2: endogenous WDR44 (HeLa) (protein, UniProt Q5JSH3 1-913)
chain: MASESDTEEFYDAPEDVHLGGGYPVGSPGKVGLSTFKETENTAYKVGNESPVQELKQDVSKKIIESIIEESQKVLQLEDDSLDSKGKELSDQATASPIVARTDLSNIPGLLAIDQVLPEESQKAESQNTFEETELELKKCFPSDETCEKPVDETTKLTQTSSTEQLNVLETETEVLNKEAVEVKGGGDVLEPVSSDSLSTKDFAAVEEVAPAKPPRHLTPEPDIVASTKKPVPARPPPPTNFPPPRPPPPSRPAPPPRKRKSELEFETLKTPDIDVPKENITSDSLLTASMASESTVKDSQPSLDLASATSGDKIVTAQENGKAPDGQTVAGEVMGPQRPRSNSGRELTDEEILASVMIKNLDTGEEIPLSLAEEKLPTGINPLTLHIMRRTKEYVSNDAAQSDDEEKLQSQPTDTDGGRLKQKTTQLKKFLGKSVKRAKHLAEEYGERAINKVKSVRDEVFHTDQDDPSSSDDEGMPYTRPVKFKAAHGFKGPYDFDQIKVVQDLSGEHMGAVWTMKFSHCGRLLASAGQDNVVRIWALKNAFDYFNNMRMKYNTEGRVSPSPSQESLSSSKSDTDTGVCSGTDEDPDDKNAPFRQRPFCKYKGHTADLLDLSWSKNYFLLSSSMDKTVRLWHISRRECLCCFQHIDFVTAIAFHPRDDRYFLSGSLDGKLRLWNIPDKKVALWNEVDGQTKLITAANFCQNGKYAVIGTYDGRCIFYDTEHLKYHTQIHVRSTRGRNKVGRKITGIEPLPGENKILVTSNDSRIRLYDLRDLSLSMKYKGYVNSSSQIKASFSHDFTYLVSGSEDKYVYIWSTYHDLSKFTSVRRDRNDFWEGIKAHNAVVTSAIFAPNPSLMLSLDVQSEKSEGNEKSEDAEVLDATPSGIMKTDNTEVLLSADFTGAIKVFVNKRKNVS
B3: MICAL1 of rat brain lysate (protein, UniProt D3ZBP4 1-1047)
chain: MASPTSTNPAHDHFETFVQAQLCQDVLSSFQGLCRALGVESGGGLPQYHKIKAQLNYWSAKSLWAKLDKRASQPAYQQGQACTNTKCLVVGAGPCGLRAAVELALLGARVVLVEKRTKFSRHNVLHLWPFTIHDLRALGAKKFYGRFCTGTLDHISIRQLQLLLLKVALLLGVEIHWGFTFTGLQPPPKKGSGWRARIQPSPPAQLASYEFDVLISAGGGKFVPEGFTIREMRGKLAIGITANFVNGRTVEETQVPEISGVARIYNQKFFQSLLKATGIDLENIVYYKDDTHYFVMTAKKQCLLRLGVLRQDLPETDQLLGKANVVPEALQQFARAAADFATQGKLGKLEFAQDARGRPDVAAFDFTSMMRSESSARIQEKHGARLLLGLVGDCLVEPFWPLGTGVARGFLAAFDAAWMVKRWAEGTGPLELLAERESLYQLLSQTSPENMHRNVAQYGLDPATRYPNLNLRAVTPNQVQDLYDIMDKEHARKKSDETDARKTTTGSAGTEELLHWCQEQTAGFPGVSVTDFSSSWADGRALCALVHRLQPGLLEPSELQGMSALEATAWALRVAEYELGIIPVLSAQAVVAGSDPLGLIAYLSHFHSAFKNTPHSSGLVSQPHGTPSAILFLGKLQRSLQRTRTKVEEETPCTEEPPVSEPSVPPALPSEHEEAGAEDVCELCGKRLYILERFCVDGHFFHRGCFCCRTCEATLRPGGYGQYPGDGYFYCLQHLPQEDQKEADNNGSPENQELPTPGDSTTQSGPSSPVPPVTEASPVPSPSQPARRLIRLSSVERLRLSSLNIIPDSGVEPPPKPPRSCLDLAQESLKSSFMGWGVLRAPQVPEAIEKGEEEEEEEEEEEEEEEELPPPLALEVEQSLLTLAKNSGDMTKYPTWRRTLMRRAKEEEMKRFCKAQAIQRRLNEIEAAMRELETEGMKLEVALRKESSSPEKQKKLWLEQLLQLIQKKNSLVTEEAELMITVQELDLEEKQRQLDHEFRGINREETLKTQADRLSEDRVLRKLLDVVNQRDALIQFQEERRLREMPV
B4: endogenous MICAL1 (human cells) (protein, UniProt Q8TDZ2 1-1067)
chain: MASPTSTNPAHAHFESFLQAQLCQDVLSSFQELCGALGLEPGGGLPQYHKIKDQLNYWSAKSLWTKLDKRAGQPVYQQGRACTSTKCLVVGAGPCGLRVAVELALLGARVVLVEKRTKFSRHNVLHLWPFTIHDLRALGAKKFYGRFCTGTLDHISIRQLQLLLLKVALLLGVEIHWGVTFTGLQPPPRKGSGWRAQLQPNPPAQLANYEFDVLISAAGGKFVPEGFKVREMRGKLAIGITANFVNGRTVEETQVPEISGVARIYNQSFFQSLLKATGIDLENIVYYKDDTHYFVMTAKKQCLLRLGVLRQDWPDTNRLLGSANVVPEALQRFTRAAADFATHGKLGKLEFAQDAHGQPDVSAFDFTSMMRAESSARVQEKHGARLLLGLVGDCLVEPFWPLGTGVARGFLAAFDAAWMVKRWAEGAESLEVLAERESLYQLLSQTSPENMHRNVAQYGLDPATRYPNLNLRAVTPNQVRDLYDVLAKEPVQRNNDKTDTGMPATGSAGTQEELLRWCQEQTAGYPGVHVSDLSSSWADGLALCALVYRLQPGLLEPSELQGLGALEATAWALKVAENELGITPVVSAQAVVAGSDPLGLIAYLSHFHSAFKSMAHSPGPVSQASPGTSSAVLFLSKLQRTLQRSRAKENAEDAGGKKLRLEMEAETPSTEVPPDPEPGVPLTPPSQHQEAGAGDLCALCGEHLYVLERLCVNGHFFHRSCFRCHTCEATLWPGGYEQHPGDGHFYCLQHLPQTDHKAEGSDRGPESPELPTPSENSMPPGLSTPTASQEGAGPVPDPSQPTRRQIRLSSPERQRLSSLNLTPDPEMEPPPKPPRSCSALARHALESSFVGWGLPVQSPQALVAMEKEEKESPFSSEEEEEDVPLDSDVEQALQTFAKTSGTMNNYPTWRRTLLRRAKEEEMKRFCKAQTIQRRLNEIEAALRELEAEGVKLELALRRQSSSPEQQKKLWVGQLLQLVDKKNSLVAEEAELMITVQELNLEEKQWQLDQELRGYMNREENLKTAADRQAEDQVLRKLVDLVNQRDALIRFQEERRLSELALGTGAQG

Target: T1, GST–GRAF1 SH3 (human)
Assay: affinity purification with mass spectrometry; GST-SH3 on glutathione sepharose beads with ~7 mg rat brain or HeLa lysate, 30 min 4°C; 20 mM Hepes pH 7.4, 150 mM NaCl, 2 mM EDTA, 1% IGEPAL CA-630, 1 mM DTT; Thrombin elution, Coomassie bands, LC-MS/MS; only the target purified

| binding | Binder |
| --- | --- |
| binds | B1 |
| binds | B2 |
| binds | B3 |
| binds | B4 |

Target: T2, GST–GRAF2 SH3 (human)
Assay: as above

| binding | Binder |
| --- | --- |
| binds | B1 |
| binds | B2 |
| binds | B3 |

— article PMC7199855, “GRAF2, WDR44, and MICAL1 mediate Rab8/10/11–dependent export of E-cadherin, MMP14, and CFTR ΔF508” (The Journal of Cell Biology, 2020)
